Data on two molecules can be found in patent US20200140501A1 (published 2020).

The chains behind the UniProt entries cited, without tags or fusion partners. Residues count along the entry.
UniProt Q15389, residues 20-498: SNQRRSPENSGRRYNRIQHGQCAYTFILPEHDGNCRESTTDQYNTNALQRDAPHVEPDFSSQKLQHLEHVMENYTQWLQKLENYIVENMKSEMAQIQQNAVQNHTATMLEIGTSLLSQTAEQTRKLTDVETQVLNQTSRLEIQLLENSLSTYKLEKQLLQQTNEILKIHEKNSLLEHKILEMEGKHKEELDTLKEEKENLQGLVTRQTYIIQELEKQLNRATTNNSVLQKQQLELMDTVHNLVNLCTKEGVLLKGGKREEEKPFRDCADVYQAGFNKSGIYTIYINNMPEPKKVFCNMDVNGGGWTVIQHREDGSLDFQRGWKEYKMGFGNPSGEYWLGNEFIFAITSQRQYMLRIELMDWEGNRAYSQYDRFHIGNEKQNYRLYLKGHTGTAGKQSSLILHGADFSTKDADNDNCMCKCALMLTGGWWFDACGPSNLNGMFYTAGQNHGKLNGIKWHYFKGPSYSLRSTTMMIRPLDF

These are yes or no findings as the source states them, for the method shown. Some binding calls cover weakened binding; strength is not graded here.

The target of experiment [1] is human angiopoietin-1 (Ang-1) (human) (UniProt Q15389). The experiment is described as follows: competition ELISA format (FIG. 2).
The target is the same in experiment [2]. The experiment in a line: solution competition ELISA.

B1: hNGAL lipocalin mutein SEQ ID NO: 7 (designed binder)
chain: QDSTSDLIPAPPLSKVPLQQNFQDNQFHGKWYVVGHAGNYILREDKDPEKMWATIYELKEDKSYDVTEVSFGPKKCNYRIWTFVPGSQPGEFTLGGIKSPPGDTSTLVRVVSTNYNQHAMVFFKHVLQNREFFEITLYGRTKELTSELKENFIRFSKSLGLPENHIVFPVPIDQCIDGSAWSHPQFEK
For the molecule B1, the binding entry in experiment [1] and in experiment [2] was “binds” each time.

B2: hNGAL lipocalin mutein SEQ ID NO: 8 (designed binder)
chain: QDSTSDLIPAPPLSKVPLQQNFQDNQFHGKWYVVGQAGNYILREDKDPGKMWATIYELKEDKSYDVTEVSFGAKKCNYRIWTFVPGSQPGEFTLGGIKSDPGGTSTLVRVVSTNYNQHAMVFFKHVLQNREFFEITLYGRTKELTSELKENFIRFSKSLGLPENHIVFPVPIDQCIDGSAWSHPQFEK
Consider B2, for which the binding result in experiment [1] is recorded as “binds”.
